Assay results from patent publication US20250222068A1, “COMPOSITION FOR PREVENTING OR TREATING LUPUS COMPRISING RECOMBINANT STABILIZED GALECTIN-9 PROTEIN” (GBIOLOGICS INC., priority 2022, published 2025).
At least one structure is not confirmed: it was looked up by name or label, or the drawing left a doubt.

How the values were obtained:
MRL/FAS^lpr mice [1] = assay: Histomorphological evaluation of renal tissue (H&E staining); assay type: in vivo; conditions: mycophenolate 60 mg/kg PO once daily, 9 weeks, FIG. 6
From the text: Specifically, after the completion of the experiment, the experimental animals of <1-1> were sacrificed, and renal tissues were collected. The collected renal tissues were fixed and dehydrated in 10% formaldehyde and subsequently embedded in paraffin. The fixed renal tissues were sectioned to a thickness of 2 μm and stained with hematoxylin and eosin (H&E). The sectioned tissues were covered with a coverslip and observed under an optical microscope at 400× magnification. Four regions were imaged for each tissue, and two or more researchers assigned scores based on the evaluation items and criteria for histomorphological assessment shown in [Table 3]. The average of the researchers' scores was determined as the scoring value, and the mean of the scoring values for the four regions was calculated as the final score for each tissue.

MRL/FAS^lpr mice [2] = assay: IgG immunofluorescence staining of renal tissue; assay type: in vivo; conditions: mycophenolate 60 mg/kg PO once daily, 9 weeks, FIG. 7
Procedure: Additionally, the collected kidney tissues were frozen, sectioned at a thickness of 4 μm, and fixed in cold acetone for 5 minutes, followed by two washes with phosphate-buffered saline (PBS) for 5 minutes each. To eliminate non-specific reactions, blocking was performed for 30 minutes using a PBS solution containing 1% bovine serum albumin and 0.05% Tween-20. The sections were then incubated at room temperature for 1 hour with FITC-conjugated goat anti-mouse IgG antibody (1:200, AP308F, Merck Millipore). After three washes with PBS for 5 minutes each, nuclear staining was performed using DAPI, and the sections were covered with a cover glass using mounting medium. The samples were then examined using a confocal laser scanning microscope (C2 Plus, Nikon). […] Furthermore, it was confirmed that the glomerular lesion scores decreased in the positive control group (Mycophenolate) and the sGal-9 treatment groups (sGal-9 2 mg/kg and sGal-9 4 mg/kg) compared to the negative control group (Vehicle).

anti-dsDNA antibodies = assay: Plasma anti-dsDNA antibody levels (ELISA) in an in vivo model of systemic lupus erythematosus; parameters: species or system mice; conditions: mycophenolate 60 mg/kg PO once daily, 9 weeks, FIG. 8
Procedure: Anti-dsDNA antibodies are a type of antinuclear antibody (ANA) that target intracellular nuclear components and are present at high titers in systemic lupus erythematosus (SLE). These antibodies are associated with the persistent progression of kidney inflammation and damage.
Specifically, after the completion of the experiment, cardiac blood collection was performed on the experimental animals from <1-1>. The collected blood was allowed to coagulate for 30 minutes using a capillary blood collection tube (Cat. 365967, BD) and then centrifuged at 6,000×g for 10 minutes to obtain plasma. The obtained plasma was diluted at a ratio of 1:2,500, and the concentration of anti-dsDNA antibodies was measured using a Mouse Anti-dsDNA IgG Antibody ELISA Kit (Cat. 3031, Chondrex) according to the manufacturer's protocol.

MRL/FAS^lpr mice [3] = assay: Clinical indicators (skin, lymphadenopathy, proteinuria scores) in an in vivo model of systemic lupus erythematosus; conditions: mycophenolate 60 mg/kg PO once daily, 9 weeks
From the text: Specifically, the occurrence and severity of lupus were regularly observed from group allocation to the end of the experiment in the experimental animals from <1-1> and evaluated according to the criteria shown in [Table 2].

**Q.** With `COc1c(C)c2c(c(O)c1C/C=C(\C)CCC(=O)O)C(=O)OC2` [Mycophenolate, mycophenolate, reference compound] as the compound, how does the “glomerular lesion scores compared to negative control (Vehicle)” value (MRL/FAS^lpr mice [1]) read?
**A.** decreased

**Q.** What about the “inflammatory cell infiltration within the glomeruli” value (MRL/FAS^lpr mice [1]; H&E) of the same compound?
**A.** reduction

**Q.** What about the “IgG deposition in the kidney compared to negative control (Vehicle)” value (MRL/FAS^lpr mice [2]) of the same compound?
**A.** decreased

**Q.** What about the “concentration of anti-dsDNA antibodies in plasma compared to negative control (Vehicle)” value (anti-dsDNA antibodies) of the same compound?
**A.** decreased

**Q.** What about the “skin lesions (skin score) compared to negative control (Vehicle)” value (MRL/FAS^lpr mice [3]; FIG. 2) of the same compound?
**A.** reduced

**Q.** What about the “lymphadenopathy score compared to negative control (Vehicle)” value (MRL/FAS^lpr mice [3]; FIG. 3) of the same compound?
**A.** decreased

**Q.** And the “proteinuria compared to negative control (Vehicle)” value (MRL/FAS^lpr mice [3]; FIG. 4)?
**A.** decreased
